Source: paper PMC6179184, “Interaction of the Warsaw breakage syndrome DNA helicase DDX11 with the replication fork-protection factor Timeless promotes sister chromatid cohesion” (PLoS Genetics, 2018)
No constants are given. Whether binding was seen depends on the method and setting. For some assays here: Binding seen in cells or lysates may run through a third protein. Some binding calls cover weakened binding; strength is not graded here. For some assays here: Where a sequence is shown, tags or fusion partners need not be part of it.

Amino acid sequences for entries named in this document (tags omitted).
UniProt Q9UNS1: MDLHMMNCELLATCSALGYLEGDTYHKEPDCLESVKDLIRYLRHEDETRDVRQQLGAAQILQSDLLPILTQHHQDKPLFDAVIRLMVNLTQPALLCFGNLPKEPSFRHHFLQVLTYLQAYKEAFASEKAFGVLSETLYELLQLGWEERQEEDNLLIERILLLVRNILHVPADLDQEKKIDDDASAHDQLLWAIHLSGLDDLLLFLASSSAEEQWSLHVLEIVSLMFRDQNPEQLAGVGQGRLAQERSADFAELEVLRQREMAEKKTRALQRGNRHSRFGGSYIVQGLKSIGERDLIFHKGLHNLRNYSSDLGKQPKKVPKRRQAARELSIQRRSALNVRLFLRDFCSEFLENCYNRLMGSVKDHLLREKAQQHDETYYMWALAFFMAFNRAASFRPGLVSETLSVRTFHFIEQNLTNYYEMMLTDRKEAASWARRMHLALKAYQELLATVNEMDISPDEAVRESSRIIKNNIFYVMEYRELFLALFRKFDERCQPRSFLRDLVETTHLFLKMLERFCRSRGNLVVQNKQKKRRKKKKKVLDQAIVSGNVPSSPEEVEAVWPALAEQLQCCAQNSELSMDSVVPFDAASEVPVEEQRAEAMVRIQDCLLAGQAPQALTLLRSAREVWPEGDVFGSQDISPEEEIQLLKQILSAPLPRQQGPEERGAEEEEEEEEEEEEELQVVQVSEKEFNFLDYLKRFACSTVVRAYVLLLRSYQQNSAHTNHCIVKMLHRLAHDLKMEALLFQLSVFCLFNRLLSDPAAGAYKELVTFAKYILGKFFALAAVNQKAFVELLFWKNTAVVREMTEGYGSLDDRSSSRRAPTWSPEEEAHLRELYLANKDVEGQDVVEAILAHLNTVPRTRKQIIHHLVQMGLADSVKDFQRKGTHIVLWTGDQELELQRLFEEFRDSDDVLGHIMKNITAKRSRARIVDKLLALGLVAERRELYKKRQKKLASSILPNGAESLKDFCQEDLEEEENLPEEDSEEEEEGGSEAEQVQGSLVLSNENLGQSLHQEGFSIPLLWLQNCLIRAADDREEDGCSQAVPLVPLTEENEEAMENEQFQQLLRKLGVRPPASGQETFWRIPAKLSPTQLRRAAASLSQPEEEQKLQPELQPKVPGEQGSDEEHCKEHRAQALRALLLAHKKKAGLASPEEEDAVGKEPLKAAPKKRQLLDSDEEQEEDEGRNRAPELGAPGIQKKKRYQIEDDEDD

T1: endogenous Cdc45 (HeLa nuclear fraction) (human (endogenous in HeLa)) (UniProt O75419)
T1 sequence: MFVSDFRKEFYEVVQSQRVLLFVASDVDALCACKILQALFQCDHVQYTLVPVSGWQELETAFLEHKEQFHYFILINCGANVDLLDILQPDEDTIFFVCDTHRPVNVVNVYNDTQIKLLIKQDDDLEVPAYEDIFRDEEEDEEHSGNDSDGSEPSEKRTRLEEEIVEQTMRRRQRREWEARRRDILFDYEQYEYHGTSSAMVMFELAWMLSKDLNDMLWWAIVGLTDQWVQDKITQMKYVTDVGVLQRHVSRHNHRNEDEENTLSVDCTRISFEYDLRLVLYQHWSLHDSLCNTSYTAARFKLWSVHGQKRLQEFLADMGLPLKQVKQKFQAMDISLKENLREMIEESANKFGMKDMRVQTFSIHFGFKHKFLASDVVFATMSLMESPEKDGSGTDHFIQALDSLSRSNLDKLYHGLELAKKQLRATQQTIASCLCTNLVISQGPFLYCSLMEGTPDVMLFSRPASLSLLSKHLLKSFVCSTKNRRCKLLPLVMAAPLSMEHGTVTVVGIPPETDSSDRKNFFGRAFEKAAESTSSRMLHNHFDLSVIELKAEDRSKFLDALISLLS

T2: DDX11-3xFlag KAK mutant (human) (UniProt Q96FC9)
T2 sequence: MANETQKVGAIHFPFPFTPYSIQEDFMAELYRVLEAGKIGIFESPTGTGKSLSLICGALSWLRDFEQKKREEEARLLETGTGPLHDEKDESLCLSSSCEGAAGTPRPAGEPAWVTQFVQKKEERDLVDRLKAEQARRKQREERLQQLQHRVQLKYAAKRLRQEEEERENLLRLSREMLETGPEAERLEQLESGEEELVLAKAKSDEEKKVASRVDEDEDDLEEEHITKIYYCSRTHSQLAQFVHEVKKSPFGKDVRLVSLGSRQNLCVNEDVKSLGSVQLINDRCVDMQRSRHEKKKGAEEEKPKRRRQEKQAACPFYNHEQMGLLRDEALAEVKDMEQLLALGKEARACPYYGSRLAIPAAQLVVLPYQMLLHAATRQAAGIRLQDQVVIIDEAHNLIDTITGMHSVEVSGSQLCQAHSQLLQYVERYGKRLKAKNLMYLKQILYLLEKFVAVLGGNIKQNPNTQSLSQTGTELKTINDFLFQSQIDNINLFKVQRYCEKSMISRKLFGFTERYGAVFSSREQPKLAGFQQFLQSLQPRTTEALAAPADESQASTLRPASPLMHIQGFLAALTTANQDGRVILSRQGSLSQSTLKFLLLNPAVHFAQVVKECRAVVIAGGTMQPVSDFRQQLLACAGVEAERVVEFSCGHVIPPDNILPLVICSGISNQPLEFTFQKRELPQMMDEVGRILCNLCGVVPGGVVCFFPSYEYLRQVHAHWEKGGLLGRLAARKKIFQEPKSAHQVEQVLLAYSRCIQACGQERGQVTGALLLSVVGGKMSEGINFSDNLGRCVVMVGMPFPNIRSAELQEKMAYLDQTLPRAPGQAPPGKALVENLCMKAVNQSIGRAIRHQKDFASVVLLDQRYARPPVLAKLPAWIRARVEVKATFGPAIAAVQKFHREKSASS

T3: DDX11 Peptide # 32 with Glu201 substituted with lysine (human) (UniProt Q96FC9)
T3 sequence (peptide): EQLESGEEELVLAKY

T4: DDX11 Peptide # 32 with Tyr202 substituted with lysine (human) (UniProt Q96FC9)
T4 sequence (peptide): EQLESGEEELVLAEK


Columns and labels:
[1] = target: T1, endogenous Cdc45 (HeLa nuclear fraction) (human (endogenous in HeLa)); assay: co-IP; nuclear fraction (sonicated, micrococcal nuclease treated) of S phase control (C1) and DDX11-depleted (5-5) HeLa cells; anti-Cdc45 rabbit IgG or control IgG on Protein A Sepharose; 10 mM Hepes-NaOH pH 7.9, 50 mM NaCl, 1 mM DTT, 0.1% Triton X-100, 4 C; Western blot
[2] = target: T2, DDX11-3xFlag KAK mutant (human); assay: pull-down; mixtures of purified recombinant proteins (Timeless 0.8 ug or cohesin 1 ug, DDX11 0.5 ug, 200 uL) with anti-DDX11 antibody on Protein A beads; 25 mM Tris-HCl pH 7.5, 150 mM NaCl, 2 mM MgCl2, 1 mM DTT, 5% glycerol, 2 hr at 4 C; washes with 300 mM NaCl, 0.25% Triton X-100; immuno-blot; both purified
[3] = target: T3, DDX11 Peptide # 32 with Glu201 substituted with lysine (human); assay: peptide or protein array; PEPperCHIP microarrays of 15-residue DDX11 peptides on glass slides (tiling array, 13-residue overlap; full substitution scan of peptide # 32); Flag-Timeless at 50 ug/mL in PBS, 0.05% Tween 20, 1% BSA for 16 hr; detected with Cy3-labelled anti-Flag antibody; control array without Flag-Timeless; both purified
[4] = target: T4, DDX11 Peptide # 32 with Tyr202 substituted with lysine (human); assay: as above

| binding [1] | binding [2] | Molecule | binding [3] | binding [4] |
| --- | --- | --- | --- | --- |
| binds | – | endogenous Timeless (HeLa nuclear fraction) (from UniProt Q9UNS1 1-1208) | – | – |
| – | binds weakly | recombinant human Flag-Timeless (from UniProt Q9UNS1 1-1208) | no binding (tested: 50 ug/mL Flag-Timeless) | no binding (tested: 50 ug/mL Flag-Timeless) |
| binds | – | endogenous DDX11 (HeLa nuclear fraction) (enzyme, UniProt Q96FC9 1-970) MANETQKVGAIHFPFPFTPYSIQEDFMAELYRVLEAGKIGIFESPTGTGKSLSLICGALSWLRDFEQKKREEEARLLETGTGPLHDEKDESLCLSSSCEGAAGTPRPAGEPAWVTQFVQKKEERDLVDRLKAEQARRKQREERLQQLQHRVQLKYAAKRLRQEEEERENLLRLSREMLETGPEAERLEQLESGEEELVLAEYESDEEKKVASRVDEDEDDLEEEHITKIYYCSRTHSQLAQFVHEVKKSPFGKDVRLVSLGSRQNLCVNEDVKSLGSVQLINDRCVDMQRSRHEKKKGAEEEKPKRRRQEKQAACPFYNHEQMGLLRDEALAEVKDMEQLLALGKEARACPYYGSRLAIPAAQLVVLPYQMLLHAATRQAAGIRLQDQVVIIDEAHNLIDTITGMHSVEVSGSQLCQAHSQLLQYVERYGKRLKAKNLMYLKQILYLLEKFVAVLGGNIKQNPNTQSLSQTGTELKTINDFLFQSQIDNINLFKVQRYCEKSMISRKLFGFTERYGAVFSSREQPKLAGFQQFLQSLQPRTTEALAAPADESQASTLRPASPLMHIQGFLAALTTANQDGRVILSRQGSLSQSTLKFLLLNPAVHFAQVVKECRAVVIAGGTMQPVSDFRQQLLACAGVEAERVVEFSCGHVIPPDNILPLVICSGISNQPLEFTFQKRELPQMMDEVGRILCNLCGVVPGGVVCFFPSYEYLRQVHAHWEKGGLLGRLAARKKIFQEPKSAHQVEQVLLAYSRCIQACGQERGQVTGALLLSVVGGKMSEGINFSDNLGRCVVMVGMPFPNIRSAELQEKMAYLDQTLSPRPGTPREGSGGEPVHEGRQPVHRQGHQAPEGFCQRSAPGPAICPAPCPGQAAGLDPSPCGGQSYLWPRHCCCAEVSPGEVGLFLMGNHTTAWRRALPLSCPLETVFVVGVVCGDPVTKVKPRRRVWSPECCQDPGTGVSSRRRKWGNPE | – | – |
